In the M2OR odorant receptor database:
Only a part is listed here, and it is no random draw. The calls were merged from several studies; some rest on single wells.

Columns and labels:
Details in all cases: stereoisomer not certain
OR10G8 (Homo sapiens) = target: T1, OR10G8 (Homo sapiens) (UniProt Q8NGN5)
T1 sequence (whole entry): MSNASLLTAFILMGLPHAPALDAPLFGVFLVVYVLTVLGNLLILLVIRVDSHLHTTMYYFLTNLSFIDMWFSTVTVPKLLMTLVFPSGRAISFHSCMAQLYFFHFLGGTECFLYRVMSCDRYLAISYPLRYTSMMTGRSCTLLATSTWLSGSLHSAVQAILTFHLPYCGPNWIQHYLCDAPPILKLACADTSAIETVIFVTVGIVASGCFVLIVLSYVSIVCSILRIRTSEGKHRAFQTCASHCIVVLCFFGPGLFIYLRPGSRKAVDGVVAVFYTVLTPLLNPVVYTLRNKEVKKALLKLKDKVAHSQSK
In short: (§1)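 Transient luciferase assays in mammalian cell lines were common, though methods varied by source. The values come from published papers and their supplementary material, with extra details from the original authors when needed. Responsive refers to a measured signal the original authors judged statistically different from baseline, and non-responsive (inactive) to the remainder.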

OR10H1 (Homo sapiens) = target: T2, OR10H1 (Homo sapiens) (UniProt Q9Y4A9)
T2 sequence (whole entry): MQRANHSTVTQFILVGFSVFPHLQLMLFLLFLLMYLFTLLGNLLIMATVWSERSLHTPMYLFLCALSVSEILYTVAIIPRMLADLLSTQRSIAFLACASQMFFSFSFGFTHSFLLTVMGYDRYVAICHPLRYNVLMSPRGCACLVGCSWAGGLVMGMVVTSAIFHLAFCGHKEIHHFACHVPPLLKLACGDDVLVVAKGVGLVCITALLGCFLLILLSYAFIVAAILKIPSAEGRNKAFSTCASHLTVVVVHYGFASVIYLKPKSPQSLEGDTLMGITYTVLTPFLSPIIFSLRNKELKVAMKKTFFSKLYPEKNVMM
In short: as §1

OR10H3 (Homo sapiens) = target: T3, OR10H3 (Homo sapiens) (UniProt O60404)
T3 sequence (whole entry): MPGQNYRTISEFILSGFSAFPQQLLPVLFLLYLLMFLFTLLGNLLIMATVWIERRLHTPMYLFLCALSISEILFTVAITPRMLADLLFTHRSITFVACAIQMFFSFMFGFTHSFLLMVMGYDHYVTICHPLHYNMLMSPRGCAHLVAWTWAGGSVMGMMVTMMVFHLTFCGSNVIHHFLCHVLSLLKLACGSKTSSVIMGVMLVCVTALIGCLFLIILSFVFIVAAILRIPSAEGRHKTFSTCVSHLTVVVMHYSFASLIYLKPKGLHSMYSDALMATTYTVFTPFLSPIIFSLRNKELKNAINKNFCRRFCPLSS
In short: as §1

OR10H4 (Homo sapiens) = target: T4, OR10H4 (Homo sapiens) (UniProt Q8NGA5)
T4 sequence (whole entry): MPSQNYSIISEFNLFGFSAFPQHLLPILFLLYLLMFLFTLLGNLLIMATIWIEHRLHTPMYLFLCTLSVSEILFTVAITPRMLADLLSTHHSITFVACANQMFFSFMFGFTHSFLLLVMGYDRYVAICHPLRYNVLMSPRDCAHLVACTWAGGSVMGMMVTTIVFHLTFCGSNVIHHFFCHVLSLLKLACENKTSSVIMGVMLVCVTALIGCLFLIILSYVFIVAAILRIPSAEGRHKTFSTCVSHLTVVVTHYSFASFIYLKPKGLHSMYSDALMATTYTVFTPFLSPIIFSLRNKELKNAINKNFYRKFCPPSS
In short: as §1

OR10J5 (Homo sapiens) = target: T5, OR10J5 (Homo sapiens) (UniProt Q8NHC4)
T5 sequence (whole entry): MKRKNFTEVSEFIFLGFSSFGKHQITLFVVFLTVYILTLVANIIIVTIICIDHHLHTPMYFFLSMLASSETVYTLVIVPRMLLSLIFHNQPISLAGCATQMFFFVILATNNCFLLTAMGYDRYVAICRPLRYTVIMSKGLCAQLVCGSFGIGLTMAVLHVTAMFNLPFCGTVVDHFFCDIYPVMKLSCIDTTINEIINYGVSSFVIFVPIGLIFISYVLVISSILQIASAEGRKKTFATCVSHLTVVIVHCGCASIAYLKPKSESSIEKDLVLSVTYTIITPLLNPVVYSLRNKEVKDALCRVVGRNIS
In short: as §1
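Also: active if original authors judged signal statistically different from baseline.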

| Structure (SMILES) | odorant receptor agonist call (OR10G8 (Homo sapiens)) | odorant receptor agonist call (OR10H1 (Homo sapiens)) | odorant receptor agonist call (OR10H3 (Homo sapiens)) | odorant receptor agonist call (OR10H4 (Homo sapiens)) | odorant receptor agonist call (OR10J5 (Homo sapiens)) |
| --- | --- | --- | --- | --- | --- |
| CCCCCCCCCCC=O | inactive | inactive | inactive | inactive | inactive |
| CC12CCC(C1)C(C)(C)C2=O (stereo not given) | inactive | inactive | inactive | inactive | inactive |
| C=CCSCC=C | inactive | inactive | inactive | inactive | inactive |
| CCCCCCCCOC(C)=O | inactive | inactive | inactive | inactive | inactive |
| CC(C)=CCCC(C)=CC=O | inactive | inactive | inactive | inactive | inactive |
| C=C(C)C1CC=C(C)C(=O)C1 (stereo not given) | – | – | – | – | inactive |
| CC(=O)OC1CC2CCC1(C)C2(C)C (stereo not given) | inactive | inactive | inactive | inactive | inactive |
| CC1=CCC(C(C)(C)O)CC1 (stereo not given) | inactive | inactive | inactive | inactive | inactive |
| O=CCc1ccccc1 | inactive | inactive | inactive | inactive | inactive |
| c1cnccn1 | inactive | inactive | inactive | inactive | inactive |
| CCC1(O)C2(C)CCC(C2)C1(C)C (stereo not given) | inactive | inactive | inactive | inactive | inactive |
| CC=Cc1ccc(O)c(OC)c1 | inactive | inactive | inactive | inactive | inactive |
| COc1cc(C=O)ccc1O | inactive | inactive | inactive | inactive | inactive |
| CCCCCCCC=CC=O | inactive | inactive | inactive | inactive | active |
| COC(=O)c1ccccc1 | inactive | inactive | inactive | inactive | inactive |
| CC(C)(O)CCCC1=CCC(C=O)CC1 (stereo not given) | – | – | – | – | active |
| CC(C)CC(=O)O | inactive | inactive | inactive | inactive | inactive |
| CC1=NC(C)SC1C (stereo not given) | inactive | inactive | inactive | inactive | inactive |
| CCCCCCC=O | – | – | – | – | inactive |
| CC(C)C(=O)O | inactive | inactive | inactive | inactive | inactive |
| COc1cc(C)ccc1O | inactive | inactive | inactive | inactive | inactive |
| O=C1CCCCCCCCCCCCCCO1 | inactive | inactive | inactive | inactive | inactive |
| CCCCCCCCC=O | active | – | – | – | inactive |
| CCCCCCCOC(C)=O | inactive | inactive | inactive | inactive | inactive |
| CC(=O)OC(C)(C)C1CC=C(C)CC1 (stereo not given) | inactive | inactive | inactive | inactive | inactive |
| CC12C=CCC1C1CCC3=CC(=O)CCC3(C)C1CC2 (stereo not given) | inactive | inactive | inactive | inactive | inactive |
| c1ccc(Oc2ccccc2)cc1 | inactive | inactive | inactive | inactive | inactive |
| CC12CCC(CC1)C(C)(C)O2 | inactive | inactive | inactive | inactive | inactive |
| CCCCCCCC=O | inactive | inactive | inactive | inactive | inactive |

Laid out differently: 2 of the compounds above
C=CCSCC=C
  odorant receptor agonist call (OR10G8 (Homo sapiens)): inactive; odorant receptor agonist call (OR10H1 (Homo sapiens)): inactive; odorant receptor agonist call (OR10H3 (Homo sapiens)): inactive; odorant receptor agonist call (OR10H4 (Homo sapiens)): inactive; odorant receptor agonist call (OR10J5 (Homo sapiens)): inactive
CCCCCCCCOC(C)=O
  odorant receptor agonist call (OR10G8 (Homo sapiens)): inactive; odorant receptor agonist call (OR10H1 (Homo sapiens)): inactive; odorant receptor agonist call (OR10H3 (Homo sapiens)): inactive; odorant receptor agonist call (OR10H4 (Homo sapiens)): inactive; odorant receptor agonist call (OR10J5 (Homo sapiens)): inactive
